Test results: patent publication US20080279961A1, “TELOMERE TARGETING AGENTS AS STEM CELLS DIRECTED TREATMENTS” (priority 2007, published 2008)
At least one compound was matched to its structure with a doubt left.

Tested on: UXF1138L tumor tissue
Assay: HTCA/clonogenic growth of in vivo treated xenograft tissue
Design: species or system nude mice
Conditions: Passage 3; RHPS4 5 mg/kg/d; control 84
Protocol: Upon termination of the experiment, which was when tumors reached a volume of 1.5 cm in diameter (day 28), RHPS4 treated tumor tissue and control tumors were excised, minced and digested using a mixture of collagenase (123 U/ml), DNase (375 U/ml), and hyaluronidase (290 U/ml) in RPMI 1640 medium at 37° C. for 3 hrs. All enzymes were purchased from Roche, Indianapolis Ind.). Primary cultures as well as clonogenic growth assays were prepared from the resulting single cell suspensions. Primary cultures were used for analysis of telomere length. In addition, RHPS4 treated tumors (5 mg/kg/d) and control were propagated into new animals for up to three times. […]
In human tumor stem cell assay (HTCA)/clonogenic assay, single cell suspensions from in vivo studies above were washed in medium and passed through sieves and the resulting single cell suspensions seeded into soft agar (n=3 tumors per group) as described by us before (Fiebig et al., 2004). […] Vital colonies were stained with 2-(4-iodophenyl)-3-(4-nitrophenyl)-5-phenyltetrazolium chloride (1 mg/ml) 24 hrs before evaluation, and colonies >70 μm were counted with an automated image analysis system (Omincon FAS IV, BIOSYS GmbH, Karben, Germany). […] Statistical significance between treatment groups was evaluated by using the Student T-test.

In the case of `COS(=O)(=O)[O-].Cc1cc2c3c([n+](C)c4ccc(F)cc4c3c1)-c1cc(F)ccc1N2C` [RHPS4, 3,11-difluoro-6,8,13-trimethyl-8H-quino[4,3,2-kl]acridinium methosulfate], the “colony count from in vivo treated tumors” value is reported as 46SD 5.1.
